“Also recorded” adds a separate entry of the source. At least one peptide structure holds a part that was inferred or is arguable (an end, a ring closure or a residue).
Tests used:
[1] = test system: TR146 oral epithelial cells; assay: Epithelial damage (LDH release), peptides alone without C. albicans cells; format: cell-based, human
vaginal A431 epithelia = assay: as above; format: cell-based, human; conditions: each peptide individually, 24 hours
human erythrocytes = assay: Haemolysis assay (haemoglobin release, absorbance at 541 nm); format: cell-based
[2] = test system: Oral epithelial (TR146) monolayers; assay: Pore formation by scanning electron microscopy; format: cell-based, human; conditions: 5 μg/ml, 5 hours
[3] = test system: TR146 oral epithelial cells; assay: Secretion of proinflammatory cytokines (multiplex bead assay); format: cell-based, human; conditions: 250 μg/mL, 24 hours
[4] = biological target: EGFR (epidermal growth factor receptor) (Homo sapiens, UniProt P00533); assay: Biacore binding assay, fluid phase EGFR to immobilised peptide; conditions: immobilised Ece1-III
[5] = test system: c-Fos in TR146 epithelial cells; assay: Induction of c-Fos DNA binding activity with EGFR blocked; format: cell-based, human; conditions: 3 hours; pre-treated 1 hour with 4 μM GW2974 or 1 μM PD153035
[6] = Phospholipid array (PIP Strip membrane); format: binding; conditions: anti-Ece1-III antibody detection
[7] = Phospholipid array (PIP Strip membrane); format: binding
[8] = Phospholipid array (PIP Strip membrane); format: binding; remark: listed apart in the source
[9] = Phospholipid array (PIP Strip membrane); format: binding; remark: listed apart in the source
[10] = Phospholipid array (PIP Strip membrane); format: binding; remark: listed apart in the source
[11] = Phospholipid array (PIP Strip membrane); format: binding; remark: listed apart in the source
[12] = Phospholipid array (PIP Strip membrane); format: binding; remark: listed apart in the source
[13] = Phospholipid array (PIP Strip membrane); format: binding; remark: listed apart in the source
[14] = Phospholipid array (PIP Strip membrane); format: binding; remark: listed apart in the source
[15] = Phospholipid array (PIP Strip membrane); format: binding; remark: listed apart in the source
[16] = Phospholipid array (PIP Strip membrane); format: binding; remark: listed apart in the source
[17] = Phospholipid array (PIP Strip membrane); format: binding; remark: listed apart in the source
[18] = Phospholipid array (PIP Strip membrane); format: binding; remark: listed apart in the source
[19] = Phospholipid array (PIP Strip membrane); format: binding; remark: listed apart in the source
[20] = Phospholipid array (PIP Strip membrane); format: binding; remark: listed apart in the source

With `CC[C@H](C)[C@H](NC(=O)CNC(=O)[C@H](CCSC)NC(=O)[C@@H](NC(=O)[C@@H](NC(=O)CNC(=O)[C@@H](NC(=O)[C@@H](NC(=O)[C@@H](N)CO)[C@@H](C)CC)[C@@H](C)CC)[C@@H](C)CC)[C@@H](C)CC)C(=O)N[C@@H](CC(C)C)C(=O)NCC(=O)N[C@@H](CC(N)=O)C(=O)N[C@H](C(=O)N1CCC[C@H]1C(=O)N[C@@H](CCC(N)=O)C(=O)N[C@H](C(=O)N[C@H](C(=O)N[C@@H](CCC(N)=O)C(=O)N[C@H](C(=O)N[C@H](C(=O)N[C@@H](CCSC)C(=O)N[C@@H](CO)C(=O)N[C@H](C(=O)N[C@H](C(=O)N[C@@H](CCCCN)C(=O)N[C@@H](C)C(=O)N[C@@H](Cc1ccccc1)C(=O)N[C@@H](CCCCN)C(=O)NCC(=O)N[C@@H](CC(N)=O)C(=O)N[C@@H](CCCCN)C(=O)N[C@@H](CCCNC(=N)N)C(=O)O)C(C)C)[C@@H](C)CC)[C@@H](C)CC)[C@@H](C)CC)[C@@H](C)CC)C(C)C)[C@@H](C)CC` [Ece1-III] the “epithelial cell lysis (LDH)” value ([1]; 250 μg/ml, 24 hours at 37° C., 5% CO2, TR146) was “capable of inducing cellular lysis”, the “damage / cytolytic activity (LDH release)” value ([1]; each peptide individually, without C. albicans cells, 24 hours, TR146) was “capable of damaging” and the “damage / cytolytic activity (LDH release)” value (vaginal A431 epithelia) was “capable of damaging”. The “haemolysis (haemoglobin release)” value (human erythrocytes; 30 μg/ml, 1 hour at 37° C., 1×10^7 human erythrocytes) was “resulted in lysis”, the “effect of EDTA on haemolytic activity after supplementation with magnesium” value (human erythrocytes; 50 mM EDTA plus 50 or 100 mM magnesium) was “reversed” and the “haemolytic activity with increasing concentrations of EDTA” value (human erythrocytes; 1 hour, divalent cation chelator EDTA) was “blocked”. The pore formation [2] was “can directly induce pores”, the “secretion of proinflammatory cytokines” value [3] was “potent induction of all cytokines” and the “direct interaction with EGFR” value [4] was “high affinity”. For the same compound, the “ability of Ece1-III to activate c-Fos when EGFR is blocked” value [5] was “abolishes”, the “binding to Phosphatidylinositol-3-phosphate” value [6] was “interacts with; also recorded: particularly robust” and the “binding to Phosphatidylinositol-4-phosphate” value [7] was “interacts with”. For the same compound, the “binding to Phosphatidylinositol-5-phosphate” value [8] was “interacts with”, the “binding to Phosphatidylinositol-3,4-phosphate” value [9] was “interacts with” and the “binding to Phosphatidylinositol-3,5-phosphate” value [10] was “interacts with”. For the same compound, the “binding to Phosphatidylinositol-4,5-phosphate” value [11] was “interacts with”, the “binding to Phosphatidylinositol-3,4,5-phosphate” value [12] was “interacts with” and the “binding to Phosphatidic acid” value [13] was “interacts with”. The “binding to Phosphatidylserine” value [14] was “interacts with”, the “binding to Lysophosphatidic acid” value [15] was “did not interact with” and the “binding to Lysophosphatidylcholine” value [16] was “did not interact with”. The “binding to Phosphatidylinositol” value [17] was “did not interact with”, the “binding to Phosphatidylethanolamine” value [18] was “did not interact with” and the “binding to Phosphatidylcholine” value [19] was “did not interact with”. For the same compound, the “binding to Sphingosine-1-phosphate” value [20] was “did not interact with”.

— patent US9969796B2, “Peptides and binding partners therefor” (priority 2013, dated 2018)
